# Results deposited as PubChem BioAssay AID1259254 (NCATS, 2017)
# Assay: 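Finding genes that stop cells copying their DNA twice in one cycle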 (primary screen)
# System: human HCT116 colorectal cancer cells
# Reagent: single siRNA against human genes
# Timing: 3 days
# Measurement: 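Nuclei stained with Hoechst and imaged; cell-cycle phase assigned by DNA content; G2 share scaled per plate, non-targeting siRNA 0%, GMNN siRNA 100%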
# Scale: G2 robust z-score and G2 cells, % of GMNN control: higher = more G2 cells, more excess DNA replication; raw share of cells in G2: higher = larger share of cells with G2 DNA content
# Active means: 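An siRNA counts as active if its G2 robust z-score lies at least 5 MADs above the screen median; here such calls match roughly 38% of GMNN control or more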
# Here is one part, drawn at random, of about 59,000 reagents. About 1,550 of all reagents (2.6%) count as active. 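G2 share is only a proxy for re-replication; each gene was hit by three separate siRNAs, and active genes were retested.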 The raw values are shown without normalisation. Unmarked entries are inactive. The numbers tell different reagents against one gene apart. Not stated in the record: the amount of reagent.
The opening 6 entries as a preview:
gene knocked down,siRNA no.,G2 robust z-score,"G2 cells, % of GMNN control",raw share of cells in G2 (%)
CDH11 (GeneID 1009),1,0.496,6.45,7.26
CDH11 (GeneID 1009),2,0.818,8.72,8.18
CDH11 (GeneID 1009),3,0.52,6.62,6.38
RPL29 (GeneID 6159),1,1.14,11,9.65
RPL29 (GeneID 6159),2,-0.479,-0.401,4.06
RPL29 (GeneID 6159),3,4.23,32.8,15.2

Main list, from the start:
gene knocked down,siRNA no.,G2 robust z-score,"G2 cells, % of GMNN control",raw share of cells in G2 (%)
CDH11 (GeneID 1009),1,0.496,6.45,7.26
CDH11 (GeneID 1009),2,0.818,8.72,8.18
CDH11 (GeneID 1009),3,0.52,6.62,6.38
RPL29 (GeneID 6159),1,1.14,11,9.65
RPL29 (GeneID 6159),2,-0.479,-0.401,4.06
RPL29 (GeneID 6159),3,4.23,32.8,15.2
TCL6 (GeneID 27004),1,2.6,21.3,12.6
TCL6 (GeneID 27004),2,1.15,11,6.73
TCL6 (GeneID 27004),3,0.797,8.58,7.13
DGKA (GeneID 1606),1,0.127,3.86,6.88
DGKA (GeneID 1606),2,-1.39,-6.82,3.11
DGKA (GeneID 1606),3,-1.61,-8.36,1.08
CDC50B (GeneID 161291),1,1.35,12.5,8.07
CDC50B (GeneID 161291),2,0.969,9.79,6.24
CDC50B (GeneID 161291),3,0.0295,3.18,3.77
PIERCE1 (GeneID 138162),1,-0.605,-1.29,2.11
PIERCE1 (GeneID 138162),2,-1.16,-5.19,2.22
PIERCE1 (GeneID 138162),3,0.481,6.35,5.12
ANXA4 (GeneID 307),1,-0.117,2.15,4.79
ANXA4 (GeneID 307),2,-0.956,-3.76,3.74
ANXA4 (GeneID 307),3,-0.254,1.18,5.12
TMSB10 (GeneID 9168),1,-0.319,0.721,5.45
TMSB10 (GeneID 9168),2,-0.749,-2.3,2.98
TMSB10 (GeneID 9168),3,0.46,6.2,5.54
ERCC5 (GeneID 2073),1,-0.641,-1.54,3.11
ERCC5 (GeneID 2073),2,-1.05,-4.39,3.64
ERCC5 (GeneID 2073),3,-0.00803,2.91,6.37
HIKESHI (GeneID 51501),1,0.837,8.85,6.77
HIKESHI (GeneID 51501),2,-0.228,1.36,4.85
HIKESHI (GeneID 51501),3,-1.04,-4.33,1.76
RPL39 (GeneID 6170),1,6.78 (active),50.7,26.5
RPL39 (GeneID 6170),2,3.09,24.7,14
RPL39 (GeneID 6170),3,3.03,24.3,12.1
PPME1 (GeneID 51400),1,0.226,4.56,8.02
PPME1 (GeneID 51400),2,0.204,4.41,5.87
PPME1 (GeneID 51400),3,-0.15,1.91,4.53
GLUL (GeneID 2752),1,0.0758,3.5,6.51
GLUL (GeneID 2752),2,4.02,31.2,14.8
GLUL (GeneID 2752),3,-0.28,1,5.64
UBAP1L (GeneID 390595),1,-0.431,-0.0655,3.75
UBAP1L (GeneID 390595),2,-0.233,1.33,3.98
UBAP1L (GeneID 390595),3,-0.934,-3.6,3.09
KLHL2P1 (GeneID 729249),1,0.797,8.58,6.5
KLHL2P1 (GeneID 729249),2,1.95,16.7,10.6
KLHL2P1 (GeneID 729249),3,0.24,4.66,4.93
KRT18 (GeneID 3875),1,-0.704,-1.99,4.32
KRT18 (GeneID 3875),2,-0.807,-2.71,4.65
KRT18 (GeneID 3875),3,1.43,13,8.97
